Assay results published in article PMC6287019.
Results are given in words; binding and its absence hold for the method and conditions named. In cells and extracts the contact can be indirect. Some results given as binding are weak or reduced against the parent protein; the word gives no strength. One block for each binder: values may come before it.

Protein sequences, listed by entry. Tags and fused reporters are not part of them. Lines headed by an entry give the natural chain unless they say otherwise; changes in a name come on top. Chains listed by the source or under a name are the forms on record and can include a tag or linker.
mGluR1α-P/E (rat mGluR1α carrying the point mutation P1153E in the Homer binding domain) (P23385, form named): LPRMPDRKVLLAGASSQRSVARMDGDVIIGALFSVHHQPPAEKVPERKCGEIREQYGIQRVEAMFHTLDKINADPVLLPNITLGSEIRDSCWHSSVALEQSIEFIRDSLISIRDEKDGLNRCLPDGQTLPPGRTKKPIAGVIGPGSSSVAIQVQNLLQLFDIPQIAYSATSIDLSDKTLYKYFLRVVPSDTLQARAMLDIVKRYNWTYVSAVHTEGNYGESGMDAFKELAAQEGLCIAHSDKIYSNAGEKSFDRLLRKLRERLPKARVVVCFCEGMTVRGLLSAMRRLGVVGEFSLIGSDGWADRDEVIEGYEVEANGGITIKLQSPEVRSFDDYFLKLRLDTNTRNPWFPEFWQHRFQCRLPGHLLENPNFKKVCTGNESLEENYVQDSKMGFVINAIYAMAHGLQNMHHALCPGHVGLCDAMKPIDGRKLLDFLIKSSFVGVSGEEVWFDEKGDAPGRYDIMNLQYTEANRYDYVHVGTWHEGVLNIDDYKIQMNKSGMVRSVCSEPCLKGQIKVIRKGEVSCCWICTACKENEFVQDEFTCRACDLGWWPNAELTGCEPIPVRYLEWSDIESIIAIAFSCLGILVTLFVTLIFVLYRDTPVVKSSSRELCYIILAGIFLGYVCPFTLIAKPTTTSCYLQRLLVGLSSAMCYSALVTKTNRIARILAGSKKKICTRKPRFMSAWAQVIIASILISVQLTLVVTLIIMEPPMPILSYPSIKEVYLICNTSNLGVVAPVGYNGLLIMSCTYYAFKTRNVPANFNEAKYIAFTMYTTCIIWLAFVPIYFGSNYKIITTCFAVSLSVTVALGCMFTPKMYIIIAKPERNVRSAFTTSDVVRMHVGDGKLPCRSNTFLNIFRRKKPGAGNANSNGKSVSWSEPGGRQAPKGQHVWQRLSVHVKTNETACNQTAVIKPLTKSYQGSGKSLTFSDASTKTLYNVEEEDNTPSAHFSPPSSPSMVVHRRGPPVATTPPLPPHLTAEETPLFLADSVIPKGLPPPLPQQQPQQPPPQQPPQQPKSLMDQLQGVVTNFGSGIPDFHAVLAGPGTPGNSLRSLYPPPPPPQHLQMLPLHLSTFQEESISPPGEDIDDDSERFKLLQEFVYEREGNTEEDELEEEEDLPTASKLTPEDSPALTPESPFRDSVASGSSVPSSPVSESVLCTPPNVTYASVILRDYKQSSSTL

Target: mGluR1α-P/E (rat mGluR1α carrying the point mutation P1153E in the Homer binding domain) (rat) (UniProt P23385)
Assay: co-IP; cerebella of mGluR1a-P/E-rescue mice homogenised in 50 mM Tris-HCl pH 7.5, 150 mM NaCl, 0.5% NP-40 with protease and phosphatase inhibitors; supernatant incubated at 4°C overnight with a rat monoclonal antibody against the mGluR1 N-terminus or rat IgG coupled to Sepharose beads; bound proteins immunoblotted for Homer, GluRδ2 and TRPC3

binding: binds
B1: transient receptor potential channel 3 (TRPC3) (protein, UniProt Q9QZC1 1-910)
chain: MSTKVKKCREPARVTLPAPEEEEDGEAEGGESQRRRRGWRGVNGGLEPPCPRAPPSPGPDASSEGSPSRWRTAGMRDKGRRQAVRGPAFMFGARGPSLTAEEERFLDAAEYGNIPVVRKMLEESRTLNVNCVDYMGQNALQLAVGNEHLEVTELLLKKENLARIGDALLLAISKGYVRIVEAILGHPGFAASRRLTLSPCEQELRDDDFYAYDEDGTRFSPDITPIILAAHCHKYEVVHLLLLKGARIERPHDYFCRCSDCAEKQRLDAFSHSRSRINAYKGLASPAYLSLSSEDPVLTALELSNELAKLANIEKEFKNDYRKLSMQCKDFVVGVLDLCRDSEEVEAILNGDLESAEPLERHGHKASLSRVKLAIKYEVKKFVAHPNCQQQLLTIWYENLSGLREQTIAIKCLVVLVVALGLPFLAIGYWIAPCSRLGKILRSPFMKFVAHAASFIIFLGLLVFNASDRFEGITTLPNITVIDYPKQIFRVKTTQFTWTEMLIMVWVLGMMWSECKELWLEGPREYIVQLWNVLDFGMLSIFIAAFTARFLAFLQATKAQQYVDSHVQESDLSEVTLPPEVQYFTYARDKWLPSDPQIISEGLYAIAVVLSFSRIAYILPANESFGPLQISLGRTVKDIFKFMVLFIMVFLAFMIGMFILYSYYLGAKVNPAFTTVEESFKTLFWSIFGLSEVTSVVLKYDHKFIENIGYVLYGIYNVTMVVVLLNMLIAMINSSYQEIEDDSDVEWKFARSKLWLSYFDDGKTLPPPFSLVPSPKSFVYFIMRITNFSKCRRRRLQKDLELGMGNSKSRLNLFTQSNSRVFESHSFNSILNQPTRYQQIMKRLIKRYVLKAQVDKENDEVNEGELKEIKQDISSLRYELLEDKSQATEELAILIHKLSEKLNPSVLRCE

binding: binds
B2: GluRδ2 (receptor, UniProt Q61625 24-1007)
chain: DSIIHIGAIFDESAKKDDEVFRTAVGDLNQNEEILQTEKITFSVTFVDGNNPFQAVQEACELMNQGILALVSSIGCTSAGSLQSLADAMHIPHLFIQRSTAGTPRSGCGLTRSNRNDDYTLSVRPPVYLNEVILRVVTEYAWQKFIIFYDSEYDIRGIQEFLDKVSQQGMDVALQKVENNINKMITTLFDTMRIEELNRYRDTLRRAILVMNPATAKSFISEVVETNLVAFDCHWIIINEEINDVDVQELVRRSIGRLTIIRQTFPVPQNISQRCFRGNHRISSSLCDPKDPFAQNMEISNLYIYDTVLLLANAFHKKLEDRKWHSMASLSCIRKNSKPWQGGRSMLETIKKGGVNGLTGDLEFGENGGNPNVHFEILGTNYGEELGRGVRKLGCWNPVTGLNGSLTDKKLENNMRGVVLRVVTVLEEPFVMVSENVLGKPKKYQGFSIDVLDALSNYLGFNYEIYVAPDHKYGSPQEDGTWNGLVGELVFKRADIGISALTITPDRENVVDFTTRYMDYSVGVLLRRAEKTVDMFACLAPFDLSLWACIAGTVLLVGLLVYLLNWLNPPRLQMGSMTSTTLYNSMWFVYGSFVQQGGEVPYTTLATRMMMGAWWLFALIVISSYTANLAAFLTITRIESSIQSLQDLSKQTDIPYGTVLDSAVYQHVRMKGLNPFERDSMYSQMWRMINRSNGSENNVLESQAGIQKVKYGNYAFVWDAAVLEYVAINDPDCSFYTVGNTVADRGYGIALQHGSPYRDVFSQRILELQQSGDMDILKHKWWPKNGQCDLYSSVDAKQKGGALDIKSLAGVFCILAAGIVLSCLIAVLETWWSRRKGSRVPSKEDDKEIDLEHLHRRVNSLCTDDDSPHKQFSTSSIDLTPLDIDTLPTRQALEQISDFRNTHITTTTFIPEQIQTLSRTLSAKAASGFAFGSVPEHRTGPFRHRAPNGGFFRSPIKTMSSIPYQPTPTLGLNLGNDPDRGTSI
